# Measured values published in ChEMBL document CHEMBL4303122, “Identification of potential treatments for COVID-19 through artificial intelligence-enabled phenomic analysis of human cells infected with SARS-CoV-2” (2020).
# Over roughly 1,600 compounds, “Hit score” has its median near 0.13; the highest 2% begin near 0.46. The list shows a part of the results. Where a SMILES comes first, the peptide text is derived from it. [ ]: non-standard residue; d: D form. pGlu = O=C1CC[C@@H](C(=O)O)N1; Thz = O=C(O)[C@@H]1CSCN1
# System: SARS-CoV-2
# Experiment: Antiviral activity against SARS-CoV-2 (USA-WA1/2020 strain) measured by imaging in HRCE cells at MOI 0.4 after 96 hrs (reported as hit score from 0-1 for on-disease vs off-disease activity: scores >0.6 considered hits)
# Type: functional, Homo sapiens
row,Compound,Hit score
1,CCn1c(=O)c2c(nc(/C=C/c3ccc(OC)c(OC)c3)n2C)n(CC)c1=O [ISTRADEFYLLINE],0.1372
2,C[N+]1(C)[C@@H]2C[C@@H](OC(=O)C(O)(c3cccs3)c3cccs3)C[C@H]1[C@@H]1O[C@@H]12 [TIOTROPIUM],0.1855
3,O=C(/C=C/c1ccc(O)c(O)c1)O[C@H](Cc1ccc(O)c(O)c1)C(=O)O [ROSMARINIC ACID],0.1856
4,COc1ccc(-c2cc(=O)c3c(O)c(OC)c(O)cc3o2)cc1OC [EUPATILIN],0.2352
5,O=C(NCCCN1CCOCC1)c1ccc(Cl)cc1 [EPROBEMIDE],0.09412
6,COc1cc(CNC(=O)CCCC/C=C/C(C)C)ccc1O [CAPSAICIN],0.1538
7,CC(=O)Nc1nnc(S(N)(=O)=O)s1 [ACETAZOLAMIDE],0.1016
8,Cc1cc2cc3c(C)cc(=O)oc3c(C)c2o1 [TRIOXSALEN],0.006457
9,CC(C)Oc1ccc2c(=O)c(-c3ccccc3)coc2c1 [IPRIFLAVONE],0.1596
10,Clc1ccc2nsnc2c1NC1=NCCN1 [TIZANIDINE],0.1488
11,O=S(=O)(O)c1ccc2[nH]c(-c3ccccc3)nc2c1 [ENSULIZOLE],0.1842
12,CCCCOc1cc(C(=O)OCCN(CC)CC)ccc1N [BENOXINATE],0.147
13,N#C/C(=C1/SC[C@@H](c2ccc(Cl)cc2Cl)S1)n1ccnc1 [LULICONAZOLE],0.09705
14,CCCCC(=O)O[C@H]1CC[C@H]2[C@@H]3CCc4cc(O)ccc4[C@H]3CC[C@]12C [ESTRADIOL VALERATE],-0.001889
15,CCCCCCOc1ccccc1C(N)=O [EXALAMIDE],0.1514
16,CC(=O)Nc1c(I)c(C(=O)N[C@H]2C(O)O[C@H](CO)[C@@H](O)[C@@H]2O)c(I)c(N(C)C(C)=O)c1I (stereo not given in full) [METRIZAMIDE],0.08821
17,Cc1c(-c2ccc(O)cc2)n(Cc2ccc(OCCN3CCCCCC3)cc2)c2ccc(O)cc12 [BAZEDOXIFENE],0.1195
18,CCc1cc2c(cc1CC)CC(NC[C@H](O)c1ccc(O)c3[nH]c(=O)ccc13)C2 [INDACATEROL],-0.2891
19,O=[N+]([O-])O[C@@H]1CO[C@H]2[C@@H]1OC[C@@H]2O [ISOSORBIDE MONONITRATE],0.1018
20,CC(C)OC(=O)OCOP(=O)(CO[C@H](C)Cn1cnc2c(N)ncnc21)OCOC(=O)OC(C)C.O=C(O)/C=C/C(=O)O [TENOFOVIR DISOPROXIL FUMARATE],0.2849
21,Cc1ccc(-c2cc(C(F)(F)F)nn2-c2ccc(S(N)(=O)=O)cc2)cc1 [CELECOXIB],0.04185
22,O=C(O)c1cccc(-c2noc(-c3ccccc3F)n2)c1,0.2151
23,CC(CNC1CCCCC1)OC(=O)c1ccccc1 (stereo not given) [HEXYLCAINE],0.1991
24,CN[C@H]1CC[C@@H](c2ccc(Cl)c(Cl)c2)c2ccccc21 [SERTRALINE],0.01994

# Molecules listed so far containing a carbonyl joined to an NH by a bond outside any ring:
row,Compound,Hit score
5,O=C(NCCCN1CCOCC1)c1ccc(Cl)cc1 [EPROBEMIDE],0.09412
6,COc1cc(CNC(=O)CCCC/C=C/C(C)C)ccc1O [CAPSAICIN],0.1538
7,CC(=O)Nc1nnc(S(N)(=O)=O)s1 [ACETAZOLAMIDE],0.1016
15,CCCCCCOc1ccccc1C(N)=O [EXALAMIDE],0.1514
16,CC(=O)Nc1c(I)c(C(=O)N[C@H]2C(O)O[C@H](CO)[C@@H](O)[C@@H]2O)c(I)c(N(C)C(C)=O)c1I (stereo not given in full) [METRIZAMIDE],0.08821

# Further records.

row,Compound,Hit score
1,CN1CCc2nc(C(=O)N[C@@H]3C[C@@H](C(=O)N(C)C)CC[C@@H]3NC(=O)C(=O)Nc3ccc(Cl)cn3)sc2C1 [EDOXABAN],0.1963
2,CC(C)NCC(O)c1ccc([N+](=O)[O-])cc1 (stereo not given) [NIFENALOL],0.2196
3,CC[C@H]1OC(=O)[C@H](C)[C@@H](O[C@H]2C[C@@](C)(OC)[C@@H](O)[C@H](C)O2)[C@H](C)[C@@H](O[C@@H]2O[C@H](C)C[C@H](N(C)C)[C@H]2O)[C@](C)(O)C[C@@H](C)CN(C)[C@H](C)[C@@H](O)[C@]1(C)O [AZITHROMYCIN],0.3754
4,C[C@@H]1CCC[C@H](C)N1NC(=O)c1ccc(Cl)c(S(N)(=O)=O)c1 [CLOPAMIDE],0.2705
5,CCOC(=O)[C@H]1O[C@@H]1C(=O)N[C@@H](CC(C)C)C(=O)NCCC(C)C [ALOXISTATIN],0.7896
6,CC(C)NCC(O)COc1ccc(CC(N)=O)cc1 (stereo not given) [ATENOLOL],0.2303
7,C[C@]12CC[C@H](O)CC1=CC[C@@H]1[C@@H]2CC[C@]2(C)C(c3cccnc3)=CC[C@@H]12 [ABIRATERONE],0.3975
8,COc1ccccc1OC(=O)c1ccccc1OC(C)=O [GUACETISAL],0.1414
9,O=C(O)CC(S)C(=O)O (stereo not given),0.06746
10,Cn1c(=O)c2c(ncn2CC2OCCO2)n(C)c1=O [DOXOFYLLINE],0.06006
11,COC(=O)Nc1nc2cc(Sc3ccccc3)ccc2[nH]1 [FENBENDAZOLE],0.2076
12,CN(CCCCCCCCCCN(C)C(=O)Oc1cccc([N+](C)(C)C)c1)C(=O)Oc1cccc([N+](C)(C)C)c1,0.1597
13,CC(=O)N(CC(O)CO)c1c(I)c(C(=O)NCC(O)CO)c(I)c(C(=O)NCC(O)CO)c1I (stereo not given) [IOHEXOL],0.2283
14,CN1CCN(CC(=O)N2c3ccccc3C(=O)Nc3cccnc32)CC1 [PIRENZEPINE],0.1961
15,Cn1c(CCCC(=O)O)nc2cc(N(CCCl)CCCl)ccc21 [BENDAMUSTINE],0.07328
16,CC(C)(C)c1cc(C(C)(C)C)c(NC(=O)c2c[nH]c3ccccc3c2=O)cc1O [IVACAFTOR],0.04666
17,Cc1ccc([C@@H]2O[C@H](CO)[C@@H](O)[C@H](O)[C@H]2O)cc1Cc1ccc(-c2ccc(F)cc2)s1 [CANAGLIFLOZIN ANHYDROUS],0.2292
18,Nc1ncnc2c1ncn2[C@@H]1O[C@H](CO)[C@@H](O)[C@@H]1O [VIDARABINE],-0.02251
19,C1CNCCN1.C[C@]12CC[C@@H]3c4ccc(OS(=O)(=O)O)cc4CC[C@H]3[C@@H]1CCC2=O [ESTROPIPATE],0.1464
20,COc1cc2ncnc(Nc3ccc(F)c(Cl)c3)c2cc1NC(=O)/C=C/CN1CCCCC1.O [DACOMITINIB],-0.155
21,CCOc1nc2cccc(C(=O)O)c2n1Cc1ccc(-c2ccccc2-c2nnn[nH]2)cc1,0.1663
22,CC[C@H](C)[C@H](N)C(=O)O [ISOLEUCINE],0.09121
23,NC(=O)c1cc([N+](=O)[O-])cc([N+](=O)[O-])c1 [NITROMIDE],0.1568
24,O=c1[nH]c2ccccc2n1CCN1CCN(c2cccc(C(F)(F)F)c2)CC1 [FLIBANSERIN],0.2785

row,Compound,Hit score
1,O=C1CC[C@@H](C(=O)N2CSC[C@H]2C(=O)O)N1 [PIDOTIMOD] ([pGlu]-[Thz]-OH),0.2479
2,NC(=O)[C@@H]1CC[C@@H]2CN1C(=O)N2OS(=O)(=O)[O-].[Na+] [AVIBACTAM SODIUM],0.2969
3,COC(=O)C1=C(C)NC(C)=C(C(=O)OC(C)(C)CN(C)CCC(c2ccccc2)c2ccccc2)C1c1cccc([N+](=O)[O-])c1 (stereo not given) [LERCANIDIPINE],-0.07328
4,CN1CCN(C(=O)O[C@H]2c3nccnc3C(=O)N2c2ccc(Cl)cn2)CC1 [ESZOPICLONE],0.1911
5,CCC1(c2ccccc2)C(=O)NCNC1=O [PRIMIDONE],0.2656
6,CCCCc1oc2ccc(NS(C)(=O)=O)cc2c1C(=O)c1ccc(OCCCN(CCCC)CCCC)cc1 [DRONEDARONE],0.03796
7,COc1cc(Nc2c(C#N)cnc3cc(OCCCN4CCN(C)CC4)c(OC)cc23)c(Cl)cc1Cl [BOSUTINIB],0.09732
8,O=C(c1ccc(F)cc1)C1CCN(CCn2c(=O)[nH]c3ccccc3c2=O)CC1 [KETANSERIN],0.2986
9,CCCCCCCC/C=C/CCCCCCCC(=O)OC[C@H]1O[C@@H](n2ccc(N)nc2=O)C(F)(F)[C@@H]1O [GEMCITABINE ELAIDATE],0.08488
10,CC(N)Cc1ccc(O)cc1 (stereo not given) [HYDROXYAMPHETAMINE],0.1217
11,Clc1ccc2c(c1)CCc1cccnc1C2=C1CCNCC1 [DESLORATADINE],0.003338
12,CCS(=O)(=O)N1CC(CC#N)(n2cc(-c3ncnc4[nH]ccc34)cn2)C1 [BARICITINIB],0.05063
13,NCC(CC(=O)O)c1ccc(Cl)cc1 (stereo not given) [BACLOFEN],0.3217
14,CCC(CC)[C@H](NC(C)=O)[C@@H]1[C@H](O)[C@@H](C(=O)O)C[C@H]1NC(=N)N [PERAMIVIR ANHYDROUS],0.03535
15,CCCOc1ccc2[nH]c(NC(=O)OC)nc2c1 [OXIBENDAZOLE],0.2495
16,Cc1cc2nc3c(=O)[nH]c(=O)nc-3n(C[C@H](O)[C@H](O)[C@H](O)CO)c2cc1C [RIBOFLAVIN],0.1705
17,CC1(C)OC[C@@H](COC(=O)CCc2ccc(OC[C@@H](O)CNCCNC(=O)N3CCOCC3)cc2)O1 [LANDIOLOL],0.1908
18,CN1CCC2=C(C1)c1ccccc1Cc1ccccc12 [SETIPTILINE],0.04395
19,Clc1cccc(Cl)c1NC1=NCCN1 [CLONIDINE],0.1651
20,CO[C@H]1/C=C/O[C@@]2(C)Oc3c(C)c(O)c4c(O)c(c5c(nc6cc(C)ccn65)c4c3C2=O)NC(=O)/C(C)=C\C=C\[C@H](C)[C@H](O)[C@@H](C)[C@@H](O)[C@@H](C)[C@H](OC(C)=O)[C@@H]1C [RIFAXIMIN],0.2244
21,Cc1ncc(CO)c(C=O)c1O [PYRIDOXAL],0.2466
22,CCCNC(=O)NS(=O)(=O)c1ccc(Cl)cc1 [CHLORPROPAMIDE],0.2087
